doi:10.1101/2020.05.13.094771

The chains behind the UniProt entries cited, without tags or fusion partners. Where a name states a change or a piece, a line headed by the entry shows the natural chain unless it says otherwise.
UniProt A5F9W9: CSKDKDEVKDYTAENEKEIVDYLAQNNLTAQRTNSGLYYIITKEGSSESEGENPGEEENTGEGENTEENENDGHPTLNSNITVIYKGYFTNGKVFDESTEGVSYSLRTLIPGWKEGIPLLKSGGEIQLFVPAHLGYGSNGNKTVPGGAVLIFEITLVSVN

Target: sfGFP-CTD_(SprB (368 aa)) (F. johnsoniae) (UniProt A1E5U5)
Experiment: affinity purification with mass spectrometry

Substance | binding
Fjoh_3466 (from UniProt A5FE93) | binds
Fjoh_4997 (PPI) (from UniProt A5F9W9) | binds

These are yes or no findings as the source states them, for the method shown. Binding seen in cells or lysates may run through a third protein. A yes stands for co-enrichment or nearness to the bait. Other partners may have been found.
